Experimental data: article PMC12622487

Molecular target: human insulin (heterodimer with three disulfide bonds) (human)
Assay: RP-HPLC of single-turnover insulin reduction products; pre-reduced TRX sample incubated with 10 mg/mL insulin for 0-90 min, reaction stopped by alkylation and trifluoroacetic acid; covalent mixed-disulfide forms seen as shifted peaks; both purified

binding: binds
B1: ORP-100 (C35S TRX; monocysteinic, chemically pre-reduced human thioredoxin-1) (enzyme, UniProt P10599 1-105)
chain: MVKQIESKTAFQEALDAAGDKLVVVDFSATWCGPSKMIKPFFHSLSEKYSNVIFLEVDVDDCQDVASECEVKCMPTFQFFKKGQKVGEFSGANKEKLEATINELV

No constants are given. Whether binding was seen depends on the method and setting. A result given as binding can be weak or reduced; the word gives no strength.
